From publication PMC12551140 come the findings set out here.

The chains behind the UniProt entries cited, without tags or fusion partners.
UniProt Q99PP9: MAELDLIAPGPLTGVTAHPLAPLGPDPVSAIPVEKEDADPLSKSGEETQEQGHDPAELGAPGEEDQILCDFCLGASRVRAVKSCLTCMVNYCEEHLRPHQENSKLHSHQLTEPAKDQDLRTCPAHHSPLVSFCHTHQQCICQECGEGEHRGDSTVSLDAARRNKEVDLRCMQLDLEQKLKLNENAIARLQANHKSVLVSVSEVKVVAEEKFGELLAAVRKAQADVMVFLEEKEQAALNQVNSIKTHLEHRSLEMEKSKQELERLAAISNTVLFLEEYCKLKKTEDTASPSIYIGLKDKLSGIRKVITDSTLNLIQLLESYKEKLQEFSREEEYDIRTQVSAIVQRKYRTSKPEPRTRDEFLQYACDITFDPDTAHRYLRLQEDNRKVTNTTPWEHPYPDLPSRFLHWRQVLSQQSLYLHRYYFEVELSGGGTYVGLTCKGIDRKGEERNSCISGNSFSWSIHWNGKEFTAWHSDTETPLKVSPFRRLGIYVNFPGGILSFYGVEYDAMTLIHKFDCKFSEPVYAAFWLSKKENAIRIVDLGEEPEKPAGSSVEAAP

Results are given in words; binding and its absence hold for the method and conditions named. In cells and extracts the contact can be indirect. Some results given as binding are weak or reduced against the parent protein; the word gives no strength. For some assays here: Tags and fused reporters may be left off the sequences shown.

The target in test [1] is T1, MYC-TRAF2 (tumour necrosis factor receptor-associated factor 2) (UniProt P39429).
T1 sequence: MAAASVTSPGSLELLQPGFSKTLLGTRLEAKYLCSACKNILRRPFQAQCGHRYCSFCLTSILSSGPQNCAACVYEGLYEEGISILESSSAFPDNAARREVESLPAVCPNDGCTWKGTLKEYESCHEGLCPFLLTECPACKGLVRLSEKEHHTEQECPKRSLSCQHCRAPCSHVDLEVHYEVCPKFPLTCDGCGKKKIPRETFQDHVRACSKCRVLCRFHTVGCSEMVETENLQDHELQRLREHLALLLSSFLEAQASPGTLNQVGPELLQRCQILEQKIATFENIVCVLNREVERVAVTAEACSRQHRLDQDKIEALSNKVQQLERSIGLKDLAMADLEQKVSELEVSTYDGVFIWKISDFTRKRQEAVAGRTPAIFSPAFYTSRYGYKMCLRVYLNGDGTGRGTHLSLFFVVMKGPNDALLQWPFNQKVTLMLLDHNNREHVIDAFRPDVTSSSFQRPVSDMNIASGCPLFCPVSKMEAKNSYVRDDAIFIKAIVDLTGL
As to the kind of experiment: co-IP; HEK293T cells cotransfected with FLAG-TRIM16 and MYC-TRAF2; IP of lysates with an anti-MYC or anti-Flag antibody, western blotting. In general terms: Immunoblotting shows a protein as a band on a membrane.

Test [2] concerns the target T2, TRAF2, endogenous mouse (mouse (endogenous in RAW264.7 and mouse colon)) (UniProt P39429).
T2 sequence: T1 sequence
As to the kind of experiment: co-IP; endogenous proteins in intestinal samples from mice treated with or without DSS; interaction weakened with DSS.

For test [3], the target named is T2, TRAF2, endogenous mouse (mouse (endogenous in RAW264.7 and mouse colon)). Put plainly: co-IP; endogenous proteins in RAW264.7 cell lysates; IP with anti-TRAF2 or anti-TRIM16 antibody on protein A/G beads, overnight at 4°C, western blotting; also cells treated with LPS (50 ng/mL), which diminished the interaction.
Test [4] addresses FLAG-TRIM16 (tripartite motif 16) (UniProt Q99PP9). As to the kind of experiment: co-IP; HEK293T cells cotransfected with FLAG-TRIM16 and MYC-TRAF2; IP of lysates with an anti-MYC or anti-Flag antibody, western blotting.
The target of test [5] is TRIM16, endogenous mouse (mouse (endogenous in RAW264.7 and mouse colon)) (UniProt Q99PP9). As to the kind of experiment: co-IP; endogenous proteins in RAW264.7 cell lysates; IP with anti-TRAF2 or anti-TRIM16 antibody on protein A/G beads, overnight at 4°C, western blotting; also cells treated with LPS (50 ng/mL), which diminished the interaction.

“FLAG-TRIM16 (tripartite motif 16) (from UniProt Q99PP9 1-556)”: in test [1], the binding entry was “binds”.

Turning to “TRIM16, endogenous mouse (from UniProt Q99PP9 1-556)”, the binding entry in test [2] and in test [3] was “binds” throughout.

B1: MYC-TRAF2 (tumour necrosis factor receptor-associated factor 2) (protein, UniProt P39429 1-501)
chain: T1 sequence
For B1, the binding entry in test [4] is on record as “binds”.

B2: TRAF2, endogenous mouse (protein, UniProt P39429 1-501)
chain: T1 sequence
As to B2, in test [5], the binding result is on record as “binds”.
